Assay in all cases: affinity purification with mass spectrometry; TAP-tag purification from S. pombe strains with TAP-tagged baits (Yaf9, Swc4, Swc2, Msc1, Swr1, H2A.Z/Pht1), LC-MS/MS and Coomassie stained PAGE gels; H2A.Z-TAP also in msc1Δ and swr1Δ strains; protocol in ref. 47
In experiment [1] the target is T1, Swc2 (S. pombe) (UniProt Q9P790).
T1 sequence: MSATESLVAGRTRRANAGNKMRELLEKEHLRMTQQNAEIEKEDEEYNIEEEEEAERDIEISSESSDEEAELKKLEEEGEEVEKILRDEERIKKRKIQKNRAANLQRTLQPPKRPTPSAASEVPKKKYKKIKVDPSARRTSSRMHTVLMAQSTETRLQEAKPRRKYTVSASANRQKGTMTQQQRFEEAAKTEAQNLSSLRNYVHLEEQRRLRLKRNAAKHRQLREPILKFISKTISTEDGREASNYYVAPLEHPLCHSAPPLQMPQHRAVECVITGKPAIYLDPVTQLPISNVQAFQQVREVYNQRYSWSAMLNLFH

By UniProt entry, the sequences of proteins in these tests, tags left out.
UniProt Q9UT79: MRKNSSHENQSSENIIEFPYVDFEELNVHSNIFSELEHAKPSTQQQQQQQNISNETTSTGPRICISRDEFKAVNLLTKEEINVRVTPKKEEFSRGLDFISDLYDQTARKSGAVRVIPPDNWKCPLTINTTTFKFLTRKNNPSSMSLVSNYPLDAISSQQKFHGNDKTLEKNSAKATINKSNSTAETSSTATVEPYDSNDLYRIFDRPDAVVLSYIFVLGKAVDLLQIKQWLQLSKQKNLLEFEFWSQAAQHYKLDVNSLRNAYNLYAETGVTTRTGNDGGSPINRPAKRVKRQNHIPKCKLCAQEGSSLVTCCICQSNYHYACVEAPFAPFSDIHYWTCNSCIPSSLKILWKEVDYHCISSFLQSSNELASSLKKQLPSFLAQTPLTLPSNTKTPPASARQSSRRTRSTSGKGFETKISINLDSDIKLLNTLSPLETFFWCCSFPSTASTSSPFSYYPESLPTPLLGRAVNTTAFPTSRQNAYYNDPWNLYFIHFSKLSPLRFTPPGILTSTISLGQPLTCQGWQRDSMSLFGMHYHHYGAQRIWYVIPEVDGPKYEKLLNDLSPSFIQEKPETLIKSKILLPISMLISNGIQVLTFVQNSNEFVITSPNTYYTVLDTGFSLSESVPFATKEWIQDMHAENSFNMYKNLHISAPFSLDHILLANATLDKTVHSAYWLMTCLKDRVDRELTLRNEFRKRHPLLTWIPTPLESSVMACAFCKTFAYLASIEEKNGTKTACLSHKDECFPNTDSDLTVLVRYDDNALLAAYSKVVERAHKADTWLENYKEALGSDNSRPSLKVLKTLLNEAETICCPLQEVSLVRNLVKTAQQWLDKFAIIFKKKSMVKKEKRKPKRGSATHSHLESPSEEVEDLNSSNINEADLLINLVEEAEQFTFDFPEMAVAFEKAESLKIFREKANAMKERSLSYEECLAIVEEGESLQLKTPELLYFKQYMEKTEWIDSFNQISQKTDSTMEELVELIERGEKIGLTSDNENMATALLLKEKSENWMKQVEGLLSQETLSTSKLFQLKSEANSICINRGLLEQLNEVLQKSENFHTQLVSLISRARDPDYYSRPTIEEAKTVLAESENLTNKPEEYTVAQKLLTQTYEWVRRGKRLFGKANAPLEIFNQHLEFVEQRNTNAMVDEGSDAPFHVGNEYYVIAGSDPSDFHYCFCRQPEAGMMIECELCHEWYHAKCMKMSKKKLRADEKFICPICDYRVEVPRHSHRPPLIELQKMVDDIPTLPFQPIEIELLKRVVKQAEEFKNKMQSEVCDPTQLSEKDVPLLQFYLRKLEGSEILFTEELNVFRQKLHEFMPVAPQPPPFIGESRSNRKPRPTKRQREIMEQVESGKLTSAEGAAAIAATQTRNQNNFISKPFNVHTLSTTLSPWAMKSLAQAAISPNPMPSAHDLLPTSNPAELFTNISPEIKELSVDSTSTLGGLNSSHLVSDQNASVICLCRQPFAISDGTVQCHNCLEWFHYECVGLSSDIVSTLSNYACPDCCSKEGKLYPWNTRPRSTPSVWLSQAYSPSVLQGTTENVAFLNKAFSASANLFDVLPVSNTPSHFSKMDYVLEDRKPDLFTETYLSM

The target of experiment [2] is T2, Swc4 (S. pombe) (UniProt O14308).
T2 sequence: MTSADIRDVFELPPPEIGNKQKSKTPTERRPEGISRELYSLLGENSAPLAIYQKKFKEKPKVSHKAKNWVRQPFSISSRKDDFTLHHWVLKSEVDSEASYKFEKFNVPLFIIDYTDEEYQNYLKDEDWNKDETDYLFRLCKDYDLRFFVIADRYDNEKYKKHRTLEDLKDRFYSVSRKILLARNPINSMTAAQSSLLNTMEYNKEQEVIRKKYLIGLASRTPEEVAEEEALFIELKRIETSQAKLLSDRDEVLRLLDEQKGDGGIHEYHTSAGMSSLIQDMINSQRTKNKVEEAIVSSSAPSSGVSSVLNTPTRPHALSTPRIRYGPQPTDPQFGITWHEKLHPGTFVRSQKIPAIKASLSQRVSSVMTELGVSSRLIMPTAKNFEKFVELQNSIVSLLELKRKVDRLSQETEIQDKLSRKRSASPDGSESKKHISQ

In experiment [3] the target is T3, Yaf9 (S. pombe) (UniProt Q10319).
T3 sequence: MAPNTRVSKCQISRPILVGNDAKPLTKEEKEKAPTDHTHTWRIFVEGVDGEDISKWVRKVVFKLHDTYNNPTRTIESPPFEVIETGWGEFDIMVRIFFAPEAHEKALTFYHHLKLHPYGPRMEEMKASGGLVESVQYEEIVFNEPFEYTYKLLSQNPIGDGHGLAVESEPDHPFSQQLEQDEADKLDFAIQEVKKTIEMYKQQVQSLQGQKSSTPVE

In experiment [4] the target is Msc1 (JmjC-domain protein of the Lid/Jarid1 family) (S. pombe) (UniProt Q9UT79).
Experiment [5] has as its target T1, Swc2 (S. pombe). The source holds these as a separate data set.
Experiment [6] concerns the target T2, Swc4 (S. pombe). The source holds these as a separate data set.
For experiment [7], the target named is T4, Swr1 (catalytic subunit of the Swr1 complex) (S. pombe) (UniProt O13682).
T4 sequence: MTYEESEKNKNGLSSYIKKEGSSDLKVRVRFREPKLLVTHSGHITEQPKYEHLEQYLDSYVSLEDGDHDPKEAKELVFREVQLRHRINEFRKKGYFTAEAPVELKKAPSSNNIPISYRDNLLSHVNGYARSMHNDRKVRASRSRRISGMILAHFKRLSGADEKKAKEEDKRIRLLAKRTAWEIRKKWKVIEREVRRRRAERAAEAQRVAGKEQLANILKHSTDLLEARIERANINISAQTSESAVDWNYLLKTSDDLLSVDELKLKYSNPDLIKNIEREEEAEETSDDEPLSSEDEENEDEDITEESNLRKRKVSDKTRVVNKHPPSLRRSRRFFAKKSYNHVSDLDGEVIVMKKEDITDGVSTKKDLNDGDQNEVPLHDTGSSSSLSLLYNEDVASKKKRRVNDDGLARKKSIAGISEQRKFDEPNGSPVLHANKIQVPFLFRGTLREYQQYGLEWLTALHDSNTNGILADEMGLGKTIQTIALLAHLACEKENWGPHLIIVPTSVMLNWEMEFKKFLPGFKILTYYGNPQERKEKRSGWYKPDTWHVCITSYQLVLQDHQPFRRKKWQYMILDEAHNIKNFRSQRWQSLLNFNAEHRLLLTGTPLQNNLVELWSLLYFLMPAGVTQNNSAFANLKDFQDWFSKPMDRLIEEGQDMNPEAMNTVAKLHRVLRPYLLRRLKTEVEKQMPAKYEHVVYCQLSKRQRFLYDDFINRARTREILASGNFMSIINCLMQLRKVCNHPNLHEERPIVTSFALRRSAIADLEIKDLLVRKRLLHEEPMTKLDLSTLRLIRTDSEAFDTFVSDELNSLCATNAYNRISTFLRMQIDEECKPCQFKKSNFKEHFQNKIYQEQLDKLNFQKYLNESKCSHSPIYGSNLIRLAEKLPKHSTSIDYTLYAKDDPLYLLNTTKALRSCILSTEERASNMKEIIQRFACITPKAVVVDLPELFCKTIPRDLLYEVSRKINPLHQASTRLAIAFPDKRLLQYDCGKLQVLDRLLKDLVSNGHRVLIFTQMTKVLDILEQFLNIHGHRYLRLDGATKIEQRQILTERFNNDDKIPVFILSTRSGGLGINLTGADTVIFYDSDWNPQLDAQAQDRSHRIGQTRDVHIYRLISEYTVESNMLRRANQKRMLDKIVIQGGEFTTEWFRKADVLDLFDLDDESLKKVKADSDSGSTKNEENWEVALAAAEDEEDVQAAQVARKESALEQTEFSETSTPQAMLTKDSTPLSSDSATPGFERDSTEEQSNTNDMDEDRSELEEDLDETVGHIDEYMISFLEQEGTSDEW

Experiment [8] addresses T3, Yaf9 (S. pombe). The source holds these as a separate data set.

Like-named read-outs stand apart in the source and are kept apart here. No constants are given. Whether binding was seen depends on the method and setting. In cells and extracts the contact can be indirect. A yes stands for co-enrichment or nearness to the bait. Other partners may have been found. For part of these data: No binding means not detected with the bait. For part of these data: Sequences can lack the tags named with a protein.

With “Msc1 (JmjC-domain protein of the Lid/Jarid1 family) (from UniProt Q9UT79 1-1588)”, the binding result in the experiment with Swc2 (S. pombe) [1], with Swc4 (S. pombe) [2] and with Yaf9 (S. pombe) [3] was “binds” in each case.

B1: Kap114 (importin family protein) (protein, UniProt Q10297 1-993)
chain: MVESKIIKLLEQVQSADPNSRIQAELGLRDLEKYHDFAAKLTDIASSGASVPLRQGSLIYLQRYIVHHWSPLFEQFQDGPIPDENVKKHVRETLLHLLVSLDNFTLIKAVAYAVSLIANVDYPDEWPEVVPAVLHLLQSTNENSINASLDVLDELVDESLVEEQFFIIAPQLASILYQFIFSAPPNDSMRMLQARGIKLFRSCLELIEIYKETKAEHVRVFLEQILPPWMDMFSHKFEVSLVDDRQVILPDSCGYFCIMGEIAMTLTKLRELFPSKLTPYVVTFVELVWNIIEKLLDPYIREVVFSDGLDDSAFGDKYPIRYLVELLLFVSVALQSKFVQNLFVSNTVPVPPLPPCIPLLVQYTQLPKHQIEVYESDVSEYIANEFSMDFASDTVRGAAISVLSAFEEHTTLPIQQSLREMSATYILNNEINWIYQEALLYACCSVDAASDDTYDDYLDPIYEAIKVRIDYSDAPILLLSRFFLFIGYFSESTVVASQFFQIIMNNLVNALQVDTVQYAAMKAIERFCSVGKVKPILSLQPMILEVLSQYASKSSDEALVLLVEAISSAVKLDCAKAAELGNSVIPLLFNLVATNASDPYICGIIEDTFEDIIHAANNYESMCEITLPELLQVLNQEDPIMVNIGATLLSCLIRAGPSPLPNGFVGYVLPPVYKITQIHSGDTELLQLSQEILKGLLEKDTPQLLETEISGSSGFQYILFILHQLLDKESDDSACFLVGPILLELADHASQMVDLQSILLSCIKRLAIAEQPRFIQSIIYVFAKLIVKDSLGMMHFLTSSLLNEQGLTAFEVLMTVWCDNFVYFSNFKNISIICIAMTKIYSFDSPLLDSVQVKGELISHSNRIITRSQSKLHPEEYSYVSVGEKILRLLSEEFVSLSKDAIVEEVSDDGADDWDDGPISAETFGLSANDVNELSKDEFSGVDNSEDEDNTDLQFYLLEFFKEAMKSNLHNINEVVFRLPQEEQDALVQIKEK
Turning to B1, the binding result (in experiment [4]; with Swc2 (S. pombe) [5]; with Swc4 (S. pombe) [6]; in experiment [7]; in the experiment with Yaf9 (S. pombe) [8]) was “no binding” throughout.

B2: Nap1.2 histone chaperone (protein, UniProt P78920 1-379)
chain: MSKGPGDFKKSWNGFAAQTPQNTPSSDVHLSKAALEKARQTLQSQLEDKSAHDEVSGLLRNNPAMLSMIEGRLSSLVGKSSGYIESLAPAVQNRITALKGLQKDCDAIQYEFRQKMLDLETKYEKKYQPIFSRRAEIIKGVSEPVDDELDHEEEIFQNNLPDPKGIPEFWLTCLHNVFLVGEMITPEDENVLRSLSDIRFTNLSGDVHGYKLEFEFDSNDYFTNKILTKTYYYKDDLSPSGEFLYDHAEGDKINWIKPEKNLTVRVETKKQRNRKTNQTRLVRTTVPNDSFFNFFSPPQLDDDESDDGLDDKTELLELDYQLGEVFKDQIIPLAIDCFLEEGDLSDFNQMDEEDSEDAYTDEEDLSSDDEEILSSEISD
As for B2, the binding result (in experiment [4]; with Swc2 (S. pombe) [5]; in the experiment with Swc4 (S. pombe) [6]; in experiment [7]; with Yaf9 (S. pombe) [8]) was “no binding” in each case.

B3: Nap1 histone chaperone (protein, UniProt O59797 1-393)
chain: MVENVNINNKRAGKMSAAPTPHNTPSGTSAPNFGAKAPQVNTIDEGDENLEAIDGKLGSLLHLTSEGVSELPEAVQRRISGLRGLQKRYSDLESQFQKELFELEKAYAKKYAPIFKRRSEVVRGADEPTEEEIKKGEAADENEKKEPTSSESKKQEGGDDTKGIPEFWLTAMKNVLSLSEMITPEDEGALSHLVDIRISYMEKPGFKLEFEFAENPFFTNKILTKTYYYMEESGPSNVFLYDHAEGDKVDWKENADLTVRTVTKKQRNKNTKQTRVVKVSVPRDSFFNFFNPPTPPSEEDEESESPELDELLELDYQIGEDFKEKLIPRAVEWFTGEALALENYDGFSDLDVEEDEDDVESSSNEEVSDSDEEDSDSKHTAHGQQNAAECRQQ
Regarding B3, the binding entry (in experiment [4]; with Swc2 (S. pombe) [5]; with Swc4 (S. pombe) [6]; in experiment [7]; with Yaf9 (S. pombe) [8]) was “no binding” throughout.

Values taken from PMC2770259.
